Laboratory results as given in the supplement of paper PMC10849652.
Some of the results follow.

By UniProt entry, the sequences of proteins in these tests, tags left out. Where a name states a change or a piece, a line headed by the entry shows the natural chain unless it says otherwise.
UniProt O75113: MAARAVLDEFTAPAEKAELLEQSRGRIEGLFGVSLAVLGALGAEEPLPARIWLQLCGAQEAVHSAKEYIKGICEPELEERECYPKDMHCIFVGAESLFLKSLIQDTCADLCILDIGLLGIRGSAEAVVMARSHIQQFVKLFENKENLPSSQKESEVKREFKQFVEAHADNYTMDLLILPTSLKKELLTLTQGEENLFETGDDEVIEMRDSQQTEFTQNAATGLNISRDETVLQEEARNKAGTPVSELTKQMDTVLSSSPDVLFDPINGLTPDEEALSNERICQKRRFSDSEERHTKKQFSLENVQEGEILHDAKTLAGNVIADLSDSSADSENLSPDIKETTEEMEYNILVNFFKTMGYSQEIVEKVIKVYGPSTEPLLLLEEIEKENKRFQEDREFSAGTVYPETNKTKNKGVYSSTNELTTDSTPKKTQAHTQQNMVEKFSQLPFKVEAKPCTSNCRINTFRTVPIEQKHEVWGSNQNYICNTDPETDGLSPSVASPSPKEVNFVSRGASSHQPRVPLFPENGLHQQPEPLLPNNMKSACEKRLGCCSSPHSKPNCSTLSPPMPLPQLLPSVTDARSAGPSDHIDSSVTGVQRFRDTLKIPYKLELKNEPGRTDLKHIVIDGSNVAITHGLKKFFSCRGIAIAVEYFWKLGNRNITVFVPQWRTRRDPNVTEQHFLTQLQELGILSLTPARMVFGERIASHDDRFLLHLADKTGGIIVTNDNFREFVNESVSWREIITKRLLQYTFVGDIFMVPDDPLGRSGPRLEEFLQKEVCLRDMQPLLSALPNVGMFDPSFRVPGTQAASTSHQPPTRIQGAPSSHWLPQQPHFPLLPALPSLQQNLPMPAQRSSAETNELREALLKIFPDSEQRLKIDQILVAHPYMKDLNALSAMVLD
UniProt Q9Y375: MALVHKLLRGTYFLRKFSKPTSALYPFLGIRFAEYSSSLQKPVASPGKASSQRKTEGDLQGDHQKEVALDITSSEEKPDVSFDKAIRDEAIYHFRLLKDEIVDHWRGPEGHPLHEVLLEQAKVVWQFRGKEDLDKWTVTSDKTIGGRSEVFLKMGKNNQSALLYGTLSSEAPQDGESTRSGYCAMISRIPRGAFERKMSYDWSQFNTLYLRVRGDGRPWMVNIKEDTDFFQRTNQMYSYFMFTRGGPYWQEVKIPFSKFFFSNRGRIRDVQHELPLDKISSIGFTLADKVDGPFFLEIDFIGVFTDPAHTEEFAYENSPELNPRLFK
UniProt P54802: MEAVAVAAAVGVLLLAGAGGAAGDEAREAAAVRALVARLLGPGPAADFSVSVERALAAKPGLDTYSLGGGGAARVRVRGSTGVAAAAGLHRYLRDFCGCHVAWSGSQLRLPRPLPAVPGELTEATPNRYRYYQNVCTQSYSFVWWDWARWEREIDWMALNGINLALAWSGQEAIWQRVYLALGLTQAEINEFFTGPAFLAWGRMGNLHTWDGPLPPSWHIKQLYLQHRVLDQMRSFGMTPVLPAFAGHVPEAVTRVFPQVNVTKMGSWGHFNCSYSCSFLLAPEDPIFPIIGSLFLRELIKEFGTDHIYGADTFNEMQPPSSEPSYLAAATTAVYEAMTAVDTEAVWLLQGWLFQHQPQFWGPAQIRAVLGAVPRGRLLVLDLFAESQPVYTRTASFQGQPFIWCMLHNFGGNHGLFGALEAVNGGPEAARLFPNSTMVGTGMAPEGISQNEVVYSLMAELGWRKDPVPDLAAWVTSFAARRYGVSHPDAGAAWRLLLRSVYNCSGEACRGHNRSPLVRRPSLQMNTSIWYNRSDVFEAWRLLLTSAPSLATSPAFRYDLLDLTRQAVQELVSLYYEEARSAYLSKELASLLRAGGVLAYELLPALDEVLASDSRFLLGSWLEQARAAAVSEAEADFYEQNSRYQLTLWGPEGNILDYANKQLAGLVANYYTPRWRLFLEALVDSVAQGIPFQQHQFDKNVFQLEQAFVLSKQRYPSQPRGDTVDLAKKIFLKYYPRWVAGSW
UniProt O14777: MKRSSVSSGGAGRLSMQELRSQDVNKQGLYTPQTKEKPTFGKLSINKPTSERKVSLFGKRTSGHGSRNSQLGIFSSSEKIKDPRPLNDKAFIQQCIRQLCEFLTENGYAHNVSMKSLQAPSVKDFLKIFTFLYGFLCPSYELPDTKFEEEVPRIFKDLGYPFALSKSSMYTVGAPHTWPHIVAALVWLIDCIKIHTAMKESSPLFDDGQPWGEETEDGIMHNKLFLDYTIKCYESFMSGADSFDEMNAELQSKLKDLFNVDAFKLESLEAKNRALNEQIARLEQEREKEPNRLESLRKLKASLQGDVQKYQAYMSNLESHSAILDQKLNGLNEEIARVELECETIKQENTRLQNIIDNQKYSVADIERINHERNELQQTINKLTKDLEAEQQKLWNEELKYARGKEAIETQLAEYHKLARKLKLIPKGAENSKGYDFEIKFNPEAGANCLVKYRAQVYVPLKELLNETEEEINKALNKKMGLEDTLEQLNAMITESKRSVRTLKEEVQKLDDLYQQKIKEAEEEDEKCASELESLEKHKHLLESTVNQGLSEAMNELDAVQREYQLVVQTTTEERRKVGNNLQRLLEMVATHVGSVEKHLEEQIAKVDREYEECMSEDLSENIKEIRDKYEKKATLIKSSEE
UniProt O76041: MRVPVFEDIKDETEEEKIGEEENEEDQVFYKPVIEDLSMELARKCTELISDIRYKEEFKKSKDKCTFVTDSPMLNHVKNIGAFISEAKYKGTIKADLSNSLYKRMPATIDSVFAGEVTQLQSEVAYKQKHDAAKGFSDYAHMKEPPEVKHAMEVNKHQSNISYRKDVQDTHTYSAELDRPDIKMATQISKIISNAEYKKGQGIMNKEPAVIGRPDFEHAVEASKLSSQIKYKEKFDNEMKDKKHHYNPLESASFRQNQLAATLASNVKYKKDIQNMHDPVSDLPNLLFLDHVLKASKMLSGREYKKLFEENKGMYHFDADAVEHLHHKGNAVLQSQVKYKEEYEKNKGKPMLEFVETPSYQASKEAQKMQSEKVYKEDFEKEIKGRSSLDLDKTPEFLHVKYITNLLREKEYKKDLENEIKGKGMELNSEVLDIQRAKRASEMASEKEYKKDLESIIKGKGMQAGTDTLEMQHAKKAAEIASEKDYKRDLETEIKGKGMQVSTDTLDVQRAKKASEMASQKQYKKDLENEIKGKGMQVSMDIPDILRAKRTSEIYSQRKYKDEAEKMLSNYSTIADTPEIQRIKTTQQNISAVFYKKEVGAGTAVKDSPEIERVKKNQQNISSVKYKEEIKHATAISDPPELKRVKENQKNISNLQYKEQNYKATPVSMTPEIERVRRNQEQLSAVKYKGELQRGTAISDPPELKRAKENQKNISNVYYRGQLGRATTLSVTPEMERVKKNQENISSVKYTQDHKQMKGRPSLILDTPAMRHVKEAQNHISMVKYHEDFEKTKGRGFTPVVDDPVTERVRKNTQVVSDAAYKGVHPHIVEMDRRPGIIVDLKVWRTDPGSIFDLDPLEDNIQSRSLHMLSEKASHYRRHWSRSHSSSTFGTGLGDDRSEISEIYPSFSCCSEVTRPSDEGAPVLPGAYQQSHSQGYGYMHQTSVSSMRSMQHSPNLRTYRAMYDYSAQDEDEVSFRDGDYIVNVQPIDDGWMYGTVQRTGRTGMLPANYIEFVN
UniProt Q969V3: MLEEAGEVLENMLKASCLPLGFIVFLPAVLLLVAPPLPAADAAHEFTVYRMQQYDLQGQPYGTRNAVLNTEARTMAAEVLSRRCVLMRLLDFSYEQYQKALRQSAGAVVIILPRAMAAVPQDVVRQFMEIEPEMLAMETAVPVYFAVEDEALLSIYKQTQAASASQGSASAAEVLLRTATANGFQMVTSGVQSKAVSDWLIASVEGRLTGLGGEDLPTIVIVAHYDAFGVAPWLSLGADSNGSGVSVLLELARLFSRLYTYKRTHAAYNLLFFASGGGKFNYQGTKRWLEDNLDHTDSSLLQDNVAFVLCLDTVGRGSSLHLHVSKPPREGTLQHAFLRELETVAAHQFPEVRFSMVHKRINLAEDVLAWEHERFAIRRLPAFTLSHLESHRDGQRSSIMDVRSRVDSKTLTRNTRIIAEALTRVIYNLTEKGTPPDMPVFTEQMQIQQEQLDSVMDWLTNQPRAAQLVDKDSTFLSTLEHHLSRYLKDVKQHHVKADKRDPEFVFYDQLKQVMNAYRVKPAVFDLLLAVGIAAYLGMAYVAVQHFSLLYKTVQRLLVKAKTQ
UniProt Q9UJ70, whole entry, looked up: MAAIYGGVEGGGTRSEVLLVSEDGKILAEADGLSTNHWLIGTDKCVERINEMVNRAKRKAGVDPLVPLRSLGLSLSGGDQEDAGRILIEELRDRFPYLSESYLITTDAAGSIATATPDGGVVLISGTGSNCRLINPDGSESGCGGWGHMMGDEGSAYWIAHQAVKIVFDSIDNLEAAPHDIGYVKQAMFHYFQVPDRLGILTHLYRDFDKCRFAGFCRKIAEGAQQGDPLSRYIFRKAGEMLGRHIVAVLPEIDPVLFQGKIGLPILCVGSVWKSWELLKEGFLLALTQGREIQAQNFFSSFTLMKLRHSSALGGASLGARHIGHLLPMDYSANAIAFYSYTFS
UniProt P55209: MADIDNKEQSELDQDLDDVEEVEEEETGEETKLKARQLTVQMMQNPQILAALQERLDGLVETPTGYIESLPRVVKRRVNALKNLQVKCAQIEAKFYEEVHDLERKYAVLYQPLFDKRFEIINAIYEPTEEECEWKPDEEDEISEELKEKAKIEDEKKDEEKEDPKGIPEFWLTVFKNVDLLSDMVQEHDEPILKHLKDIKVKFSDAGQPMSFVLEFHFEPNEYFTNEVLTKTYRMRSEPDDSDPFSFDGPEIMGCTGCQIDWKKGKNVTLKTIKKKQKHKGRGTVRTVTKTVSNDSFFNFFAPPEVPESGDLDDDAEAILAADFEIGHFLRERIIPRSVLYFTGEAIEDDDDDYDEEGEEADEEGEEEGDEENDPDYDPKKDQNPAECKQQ
UniProt Q8N183: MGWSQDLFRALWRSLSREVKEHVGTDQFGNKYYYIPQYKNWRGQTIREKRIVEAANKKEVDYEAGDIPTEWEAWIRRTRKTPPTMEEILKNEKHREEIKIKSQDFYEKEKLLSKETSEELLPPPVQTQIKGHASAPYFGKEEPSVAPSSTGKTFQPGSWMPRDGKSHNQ
UniProt Q15003, whole entry, looked up: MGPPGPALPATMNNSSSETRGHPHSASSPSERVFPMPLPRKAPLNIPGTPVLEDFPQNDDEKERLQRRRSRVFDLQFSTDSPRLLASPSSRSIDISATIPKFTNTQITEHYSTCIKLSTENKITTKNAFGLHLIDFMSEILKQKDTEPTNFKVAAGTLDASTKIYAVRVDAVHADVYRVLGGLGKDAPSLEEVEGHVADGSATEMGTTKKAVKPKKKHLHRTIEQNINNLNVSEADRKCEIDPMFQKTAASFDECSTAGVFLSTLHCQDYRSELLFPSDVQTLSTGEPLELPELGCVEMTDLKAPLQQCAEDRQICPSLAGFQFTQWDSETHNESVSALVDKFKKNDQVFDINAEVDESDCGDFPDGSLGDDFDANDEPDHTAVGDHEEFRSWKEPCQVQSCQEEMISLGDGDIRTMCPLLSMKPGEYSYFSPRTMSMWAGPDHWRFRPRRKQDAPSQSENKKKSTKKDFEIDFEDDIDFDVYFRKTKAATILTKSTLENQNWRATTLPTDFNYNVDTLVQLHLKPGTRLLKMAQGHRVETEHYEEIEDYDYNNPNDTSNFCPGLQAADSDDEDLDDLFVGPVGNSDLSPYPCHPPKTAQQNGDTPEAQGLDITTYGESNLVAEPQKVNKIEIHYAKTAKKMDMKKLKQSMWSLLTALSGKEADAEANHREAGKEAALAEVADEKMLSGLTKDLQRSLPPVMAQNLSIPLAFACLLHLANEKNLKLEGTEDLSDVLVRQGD
UniProt Q6PIU2: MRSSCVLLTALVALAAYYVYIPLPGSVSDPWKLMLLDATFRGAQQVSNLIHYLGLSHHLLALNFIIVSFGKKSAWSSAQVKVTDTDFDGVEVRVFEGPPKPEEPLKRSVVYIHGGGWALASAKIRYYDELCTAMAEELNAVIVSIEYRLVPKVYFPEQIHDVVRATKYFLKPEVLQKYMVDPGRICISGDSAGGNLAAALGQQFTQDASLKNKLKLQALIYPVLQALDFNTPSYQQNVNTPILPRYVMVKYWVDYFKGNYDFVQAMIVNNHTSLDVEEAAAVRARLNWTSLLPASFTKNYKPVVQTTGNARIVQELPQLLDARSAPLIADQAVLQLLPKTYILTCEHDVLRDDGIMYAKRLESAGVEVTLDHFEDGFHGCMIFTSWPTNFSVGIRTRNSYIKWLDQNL
UniProt P56181: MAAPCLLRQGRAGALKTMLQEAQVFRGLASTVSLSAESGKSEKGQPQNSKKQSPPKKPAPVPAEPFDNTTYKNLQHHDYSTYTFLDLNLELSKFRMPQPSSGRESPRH

Experiments:
Test in all cases: log2 fold change, soluble protein after heating vs DMSO (PISA); higher = thermal stabilisation; K562 cells, 10 uM, 30 min; active = over 0.2 and 3.5 SD of the protein, either way, in both replicates (recomputed)
[1] = compound: CS(=O)(=O)c1ccc(-c2cnc(N)c(C(=O)Nc3ccccc3)n2)cc1
Summary of the method: (§1)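 K562 cells at 2×10^6 cells/mL were treated for 30 min with 10 μM compound, and aliquots were heated for 3 min over 48°C-58°C before pooling. Extraction used PBS with 0.5% NP-40 at 4°C, and soluble protein was the supernatant after 21,000xg for 90 min, measured by TMTpro 16plex LC-MS/MS with channel sums equalised. Thermal stability values, relative to control samples and from duplicates, are log2 fold changes.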

crizotinib = compound: C[C@@H](Oc1cc(-c2cnn(C3CCNCC3)c2)cnc1N)c1c(Cl)ccc(F)c1Cl [crizotinib]
Summary of the method: as §1

[2] = compound: C[C@@H]1COCCN1C2=NC(=NC(=C2)C3(CC3)S(=O)(=O)C)C4=C5C=CNC5=CC=C4
Summary of the method: as §1

[3] = compound: C[C@H](C1=CC=C(C=C1)C(=O)NC2=C3C=CNC3=NC=C2)N
Summary of the method: as §1

duvelisib = compound: C[C@H](Nc1ncnc2nc[nH]c12)c1cc2cccc(Cl)c2c(=O)n1-c1ccccc1 [duvelisib]
Summary of the method: as §1

gandotinib = compound: Cc1cc(Nc2cc(CN3CCOCC3)c3nc(C)c(Cc4ccc(Cl)cc4F)n3n2)n[nH]1 [gandotinib]
Summary of the method: as §1

tozasertib = compound: Cc1cc(Nc2cc(N3CCN(C)CC3)nc(Sc3ccc(NC(=O)C4CC4)cc3)n2)n[nH]1 [tozasertib]
Summary of the method: as §1

[4] = compound: Cc1cc(SCc2sc(-c3ccc(C(F)(F)F)cc3)nc2C)ccc1OCC(=O)O
Summary of the method: as §1

doramapimod = compound: Cc1ccc(-n2nc(C(C)(C)C)cc2NC(=O)Nc2ccc(OCCN3CCOCC3)c3ccccc23)cc1 [doramapimod]
Summary of the method: as §1

ispinesib = compound: Cc1ccc(C(=O)N(CCCN)[C@@H](c2nc3cc(Cl)ccc3c(=O)n2Cc2ccccc2)C(C)C)cc1 [ispinesib]
Summary of the method: as §1

bafetinib = compound: Cc1ccc(NC(=O)c2ccc(CN3CC[C@H](N(C)C)C3)c(C(F)(F)F)c2)cc1Nc1nccc(-c2cncnc2)n1 [bafetinib]
Summary of the method: as §1

[5] = compound: Cc1cccc(CC(=O)N2CCc3c2ccc(-c2cn(C)c4ncnc(N)c24)c3F)n1
Summary of the method: as §1

nilotinib = compound: Cc1cn(-c2cc(NC(=O)c3ccc(C)c(Nc4nccc(-c5cccnc5)n4)c3)cc(C(F)(F)F)c2)cn1 [nilotinib]
Summary of the method: as §1

[6] = compound: Cc1nc(Nc2n[nH]c3c2CN(C(=O)N[C@H](CN(C)C)c2ccccc2)C3(C)C)c2sccc2n1
Summary of the method: as §1

dasatinib = compound: Cc1nc(Nc2ncc(C(=O)Nc3c(C)cccc3Cl)s2)cc(N2CCN(CCO)CC2)n1 [dasatinib]
Summary of the method: as §1

[7] = compound: Cc1ncc(-c2ccnc(Nc3ccc(S(C)(=O)=O)cc3)n2)n1C(C)C
Summary of the method: as §1

[8] = compound: Cn1cc(-c2ccc3c(c2)CCN3C(=O)Cc2cccc(C(F)(F)F)c2)c2c(N)ncnc21
Summary of the method: as §1

[9] = compound: Cn1cc(-c2ccc3nnc(C(F)(F)c4ccc5ncccc5c4)n3n2)cn1
Summary of the method: as §1

tipifarnib = compound: Cn1cncc1[C@@](N)(c1ccc(Cl)cc1)c1ccc2c(c1)c(-c1cccc(Cl)c1)cc(=O)n2C [tipifarnib]
Summary of the method: as §1

mubritinib = compound: FC(F)(F)c1ccc(/C=C/c2nc(COc3ccc(CCCCn4ccnn4)cc3)co2)cc1 [mubritinib]
Summary of the method: as §1

Measured: log2 fold change

NBAS (UniProt A2RRP1)
inactive: [1] 0.082 | crizotinib -0.155 | [2] -0.148 | [3] 0.424 | duvelisib -0.035 | gandotinib 0.069 | tozasertib 0.128 | [4] 0.025 | doramapimod 0.242 | ispinesib -0.188 | bafetinib 0.247 | [5] 0.04 | nilotinib -0.184 | [6] -0.166 | dasatinib 0.004 | [7] 0.089 | [8] -0.131 | [9] 0.026 | tipifarnib 0.032 | mubritinib -0.059

N4BP1 (UniProt O75113)
inactive: [1] 0.027 | crizotinib 0 | [2] 0.03 | [3] -0.084 | duvelisib 0.107 | gandotinib 0.182 | tozasertib -0.036 | [4] -0.103 | doramapimod 0.009 | ispinesib -0.198 | bafetinib -0.028 | [5] -0.242 | nilotinib 0.017 | [6] -0.232 | dasatinib 0.054 | [7] 0.156 | [8] 0.132 | [9] -0.069 | tipifarnib 0.145 | mubritinib -0.052

NDUFAF1 (UniProt Q9Y375)
inactive: [1] 0.011 | crizotinib -0.032 | [2] 0.027 | [3] -0.043 | duvelisib 0.072 | gandotinib -0.004 | tozasertib -0.053 | [4] -0.067 | doramapimod 0 | ispinesib -0.023 | bafetinib -0.078 | [5] 0.008 | nilotinib -0.022 | [6] 0.006 | dasatinib -0.029 | [7] -0.034 | [8] 0.013 | [9] 0.019 | tipifarnib 0.039 | mubritinib -0.012

NAGLU (UniProt P54802)
inactive: [1] -0.035 | crizotinib -0.017 | [2] -0.121 | [3] -0.106 | duvelisib 0.002 | gandotinib 0.011 | tozasertib 0.027 | [4] -0.049 | doramapimod -0.052 | ispinesib -0.069 | bafetinib -0.026 | [5] -0.027 | nilotinib -0.015 | [6] 0.028 | dasatinib -0.023 | [7] 0.023 | [8] 0.165 | [9] -0.004 | tipifarnib 0.038 | mubritinib 0.024

NDC80 (UniProt O14777)
inactive: [1] 0.056 | crizotinib -0.121 | [2] -0.184 | [3] 0.364 | duvelisib -0.055 | gandotinib 0.01 | tozasertib 0.067 | [4] 0.126 | doramapimod 0.223 | ispinesib -0.202 | [5] -0.05 | nilotinib -0.05 | [6] -0.223 | dasatinib -0.074 | [7] 0.164 | [8] -0.129 | [9] -0.119 | tipifarnib -0.017 | mubritinib -0.054

NEBL (UniProt O76041)
inactive: [1] 0.123 | crizotinib -0.016 | [2] -0.013 | [3] 0.04 | duvelisib -0.001 | tozasertib -0.1 | [4] -0.074 | doramapimod -0.001 | ispinesib -0.077 | bafetinib -0.137 | nilotinib 0.035 | [6] 0.121 | dasatinib 0.027 | [7] 0.057 | [8] 0 | [9] 0.014 | tipifarnib 0.065 | mubritinib 0.054

NCLN (UniProt Q969V3)
inactive: [1] 0.009 | crizotinib -0.013 | [2] 0.002 | [3] 0.064 | duvelisib -0.013 | gandotinib -0.013 | tozasertib 0.035 | [4] 0.016 | doramapimod 0.023 | ispinesib -0.09 | bafetinib -0.038 | [5] -0.01 | nilotinib -0.009 | [6] 0.025 | dasatinib 0.005 | [7] -0.03 | [8] -0.015 | [9] 0 | tipifarnib 0.028 | mubritinib -0.024

NADK2 (UniProt Q4G0N4)
inactive: [1] 0.013 | crizotinib 0.069 | [2] 0.03 | [3] 0.013 | duvelisib 0.037 | gandotinib -0.034 | tozasertib -0.035 | [4] -0.04 | doramapimod -0.024 | ispinesib 0.013 | bafetinib -0.107 | [5] -0.012 | nilotinib 0.011 | [6] 0.003 | dasatinib 0.028 | [7] -0.01 | [8] 0.006 | [9] 0.011 | tipifarnib 0.018 | mubritinib 0.007

NAGK isoform 2 (UniProt Q9UJ70)
inactive: [1] 0.131 | crizotinib 0.025 | [2] 0.034 | [3] -0.059 | duvelisib 0.039 | gandotinib -0.025 | tozasertib -0.026 | [4] -0.028 | doramapimod 0.009 | ispinesib -0.002 | bafetinib -0.048 | [5] -0.064 | nilotinib -0.049 | [6] 0.042 | dasatinib 0.079 | [7] 0.014 | [8] 0.022 | [9] -0.013 | tipifarnib -0.013 | mubritinib 0.029

NAP1L1 (UniProt P55209)
inactive: [1] 0.018 | crizotinib -0.025 | [2] -0.122 | [3] -0.021 | gandotinib -0.09 | [4] -0.016 | doramapimod 0.009 | ispinesib 0.04 | bafetinib -0.018 | [5] -0.094 | nilotinib 0.009 | [6] -0.044 | dasatinib 0.05 | [7] 0.022 | [8] -0.004 | [9] -0.039 | tipifarnib 0.001 | mubritinib -0.014

NDUFAB1 (UniProt O14561)
inactive: [1] -0.025 | crizotinib 0.124 | [2] 0.238 | [3] -0.211 | gandotinib 0.178 | tozasertib 0.08 | doramapimod 0.005 | ispinesib 0.256 | bafetinib -0.025 | [5] -0.266 | nilotinib 0.101 | [6] 0.001 | [7] -0.064 | [8] 0.072 | [9] 0.261 | mubritinib -0.044

NDUFAF2 (UniProt Q8N183)
inactive: [1] 0.024 | crizotinib -0.037 | [2] 0.023 | [3] -0.05 | duvelisib 0.034 | gandotinib 0.015 | tozasertib -0.018 | [4] -0.045 | doramapimod -0.005 | ispinesib -0.027 | bafetinib -0.056 | [5] -0.015 | nilotinib -0.004 | [6] 0.029 | dasatinib -0.003 | [7] -0.034 | [8] 0.095 | [9] 0.004 | tipifarnib -0.028 | mubritinib 0.001

NA, A0A096LPI6
inactive: [1] -0.014 | crizotinib 0.079 | [2] 0.03 | [3] -0.015 | gandotinib 0.04 | [4] -0.051 | doramapimod -0.038 | ispinesib 0.047 | bafetinib -0.076 | [5] -0.043 | nilotinib 0 | [6] -0.007 | dasatinib -0.005 | [7] -0.04 | [8] -0.003 | [9] -0.028 | tipifarnib -0.038 | mubritinib 0.024

NCAPH (UniProt Q15003)
inactive: [1] 0.049 | crizotinib 0.013 | [2] -0.017 | [3] 0.072 | gandotinib -0.11 | [4] 0.081 | doramapimod 0.006 | ispinesib -0.064 | bafetinib 0.015 | [5] 0.022 | nilotinib -0.055 | [6] -0.049 | dasatinib -0.121 | [7] 0.041 | [8] -0.057 | [9] 0.019 | tipifarnib -0.102 | mubritinib 0.019

NCEH1 isoform 2 (UniProt Q6PIU2)
inactive: [1] 0.007 | crizotinib 0.002 | [2] 0.047 | [3] -0.061 | duvelisib 0.029 | gandotinib -0.036 | tozasertib -0.01 | [4] -0.037 | doramapimod 0.059 | ispinesib 0.037 | bafetinib -0.031 | [5] -0.045 | nilotinib -0.013 | [6] -0.012 | dasatinib 0.009 | [7] 0.02 | [8] 0.025 | [9] 0.03 | tipifarnib 0.064 | mubritinib 0.05

NCAPG2 isoform 2 (UniProt Q86XI2)
inactive: [1] -0.004 | crizotinib 0.203 | [2] -0.17 | [3] 0.285 | duvelisib -0.07 | gandotinib 0.147 | tozasertib 0.113 | [4] 0.265 | doramapimod -0.084 | ispinesib -0.183 | bafetinib 0.115 | [5] 0.009 | nilotinib -0.213 | [6] -0.192 | dasatinib -0.11 | [7] 0.021 | [8] -0.094 | [9] -0.021 | tipifarnib 0.041 | mubritinib 0.068

3 successive entries already listed:
NDUFAF2 (UniProt Q8N183)
inactive: [1] 0.024 | crizotinib -0.037 | [2] 0.023 | [3] -0.05 | duvelisib 0.034 | gandotinib 0.015 | tozasertib -0.018 | [4] -0.045 | doramapimod -0.005 | ispinesib -0.027 | bafetinib -0.056 | [5] -0.015 | nilotinib -0.004 | [6] 0.029 | dasatinib -0.003 | [7] -0.034 | [8] 0.095 | [9] 0.004 | tipifarnib -0.028 | mubritinib 0.001

NA, A0A096LPI6
inactive: [1] -0.014 | crizotinib 0.079 | [2] 0.03 | [3] -0.015 | gandotinib 0.04 | [4] -0.051 | doramapimod -0.038 | ispinesib 0.047 | bafetinib -0.076 | [5] -0.043 | nilotinib 0 | [6] -0.007 | dasatinib -0.005 | [7] -0.04 | [8] -0.003 | [9] -0.028 | tipifarnib -0.038 | mubritinib 0.024

NCAPH (UniProt Q15003)
inactive: [1] 0.049 | crizotinib 0.013 | [2] -0.017 | [3] 0.072 | gandotinib -0.11 | [4] 0.081 | doramapimod 0.006 | ispinesib -0.064 | bafetinib 0.015 | [5] 0.022 | nilotinib -0.055 | [6] -0.049 | dasatinib -0.121 | [7] 0.041 | [8] -0.057 | [9] 0.019 | tipifarnib -0.102 | mubritinib 0.019

Next part:

NDUFV3 (UniProt P56181)
inactive: [1] -0.008 | crizotinib 0.017 | [2] 0.045 | [3] 0.061 | duvelisib -0.01 | tozasertib 0.091 | [4] -0.064 | doramapimod -0.011 | ispinesib 0.006 | bafetinib 0.042 | nilotinib -0.01 | [6] 0.031 | dasatinib -0.09 | [7] -0.059 | [8] 0.137 | [9] 0.04 | tipifarnib 0.042 | mubritinib 0.049
